{
  "source": "patent US6759403B2",
  "about": "“Metalloporphyrins and their uses as radiosensitizers for radiation therapy” (Brookhaven Science Associates, LLC, priority 2001, dated 2004)",
  "origin": "cited, not measured here",
  "details": "cited from earlier work",
  "note": "At least one structure is not confirmed: it was looked up by name or label, or the drawing left a doubt.",
  "data": [
    {"compound": "BrC1=C(Br)c2nc1c(-c1ccccc1)c1[nH]c(c(Br)c1Br)c(-c1ccccc1)c1nc(c(-c3ccccc3)c3[nH]c(c(Br)c3Br)c2-c2ccccc2)C(Br)=C1Br.[Cu]", "note": "[CuOBP, copper octabromotetraphenylporphvrin]", "values": [
      {"measurement": "first reduction potential E1/2", "value": "−0.59", "unit": "V"}
    ]}
  ]
}
